Here are results for 67 sequences from PubChem BioAssay AID1347423 (Functional Genomics Laboratory (NCATS/FGL), 2020).

Among all 52,000 sequences or so, about 210 (0.4%) were called active.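 Rule for the calls: active = gene whose silencing raises cell survival under the drug, median off-target-corrected z-score across its silencing RNAs 2 or more; inactive = the rest.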 The list shows a part of the results.

This experiment can be described thus: Resistance to Poly (ADP-Ribose) Polymerase inhibitor: Gene Identification via Genome-wide siRNA Screen. As to conditions: mouse BRCA2 R2336H ES cells, olaparib, CellTiter-Glo viability; stronger effect = higher value. The procedure, abridged:
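Genome-wide siRNA screen (3 siRNAs/gene, 20 nM) in mouse ES cells carrying hypomorphic BRCA2 R2336H; olaparib 500 nM added 48 h post-transfection, CellTiter-Glo viability 72 h later. Normalized to plate-median negative control; MAD z-scores, gene median, seed-adjusted.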
Background: ATP-based viability assays read luminescence as a measure of living cells.
Take GGCCAAAUCAUGGAUGCAGTT against Comt: the z-score was inactive: -1.72.

GGACGACCAUGAACUUCCCTT against AW061290: the z-score was inactive: -0.916.

With GGAGGGAUCUAAGGAACAGTT against Fgf8, the z-score was inactive: 0.0578.

Turning to “CGGCAACUUCUUCAACAUATT against 1110028A07Rik”, the z-score is inactive: -0.104.

Turning to GCUUUGACUGGAAUGACGGTT against Pex7, the z-score was inactive: 0.46.

Consider “CCCAAGAUACCACUUCAUUTT against 2610034B18Rik”, for which the z-score is inactive: -0.742.

For GGAUUUUCUUUCAGAUCCGTT against P2ry12, the z-score was inactive: 0.505.

On to CCCAGAGCAUGCCAUCAACTT against Orm3, for which the z-score was inactive: -0.0351.

With “GGCCCAACACCAUGAACAATT against 5730405M13Rik”, the z-score is inactive: -0.564.

For the sequence CGCAAGGCAUUCUCUACUUTT against Olfr1029, the z-score is inactive: 1.15.

Turning to GGCCUUCAACUUGGUUAAGTT against U2af2, the z-score was inactive: -1.37.

For GGUUAUCGUUCUUGUCAAUTT against Ifih1, the z-score was inactive: -0.0922.

GCAAUGAAGAGUAACCGCUTT against Pak2: the z-score was inactive: 0.14.

As to “GCUGGACUAACAUUGCUGUTT against 1700111I05Rik”, the z-score was inactive: -0.335.

With GCUUGAUCGAAGAAAGACATT against Tdrd3, the z-score is inactive: -0.455.

For the sequence “GGAUCAUUAAACAACCUGATT against C130076O07Rik”, the z-score is inactive: 0.421.

Turning to GCAAUUUCUGUGUGAAGAATT against Ahcyl1, the z-score is inactive: -1.39.

As for GGUAUCCAACUGGUUUGUATT against Tgifx1, the z-score was inactive: -0.148.

For the sequence “GGUACUUAUGUGGAUUGGATT against 1500019C06Rik”, the z-score was inactive: -2.15.

For the sequence CCCAUUUCACUUCAGUUUGTT against Osbp2, the z-score was inactive: -0.129.

As to GGUUGAUUUAGAGAGGGCCTT against Gprc5c, the z-score is inactive: 0.084.

As to GCAAGGUAAGUUAGAUAUUTT against Armcx3, the z-score is inactive: -0.0113.

Consider GCACCAUCAUAUGAUCACGTT against Cd83, for which the z-score is inactive: -0.122.

Consider CGUCGUGGUUGGUAUGUAATT against Sacs, for which the z-score is inactive: -0.148.

Take GGUGAAAUCGACAAUCAAGTT against Rpl10a: the z-score is inactive: -2.72.

Regarding “GGCAGCAAAAAGAAAAUCUTT against C730048C13Rik”, the z-score is inactive: 0.271.

Consider GGUGUGUGCAGGACUAAAUTT against Cacng3, for which the z-score is inactive: 0.194.

For the sequence GGUUUUGACCAGACCAUUATT against Lsm8, the z-score is inactive: -1.76.

For “GGUUUCUUUGCCUACCCAGTT against 5830434P21Rik”, the z-score was inactive: 0.0816.

As for GCCACUACCGAUUUUCCCUTT against Lctl, the z-score was inactive: 1.68.

As to UGUGCAUAGUCAAUCUCAGTT against Bag5, the z-score is inactive: 0.918.

Turning to CCAAUUCACGUAUGACAAUTT against C3ar1, the z-score is inactive: 0.395.

As to GGUGCAAAGCUUGAAAAUGTT against Gpr150, the z-score is inactive: -0.86.

As for CGGAAUGAGUCUGCUGGUCTT against Mrgprg, the z-score is inactive: 0.72.

Regarding GCUUGAUUUUUGACAGAGATT against Mdh1b, the z-score was inactive: -2.19.

With GGGAUAAAAUUCUACCUAATT against Htr2b, the z-score is inactive: 0.00724.

For GGACCUCGAUGAAACCAUCTT against Stx6, the z-score is inactive: 1.43.

Take GCCCAUGUAUCCAAAAGAATT against Lect1: the z-score was inactive: -1.18.

As to GGGUUGCCCAGAAUGUAAATT against Cga, the z-score is inactive: -1.32.

On to GCUGAAACUAGACAUUAAGTT against Taf11, for which the z-score is inactive: 1.32.

With GGAGAAUCCAAAGUAGAUCTT against Mycbp, the z-score is inactive: 0.856.

Consider CGUGUGAGGUUUGUGAAAGTT against Gzmf, for which the z-score was inactive: -2.41.

With GCAAUACCUUCUGACACAGTT against Eral1, the z-score is inactive: 0.61.

For the sequence GGACCUGUUCAGCAGUUUGTT against Hem1, the z-score was inactive: 1.46.

For the sequence “CCAAACAUCAAGGAGUUUATT against 1300013B24Rik”, the z-score is inactive: 0.873.

With “GGAUCUACUUAUGAGCUAGTT against 4931406I20Rik”, the z-score was inactive: 1.13.

On to GGAAGAACGCGUAGAUAAGTT against Anks1, for which the z-score was inactive: -0.316.

For GGAGUUCUUCUGGACCUCATT against Ccl22, the z-score is inactive: 0.0825.

As to GGAAAACACCUACCUGUGGTT against Slc25a3, the z-score was inactive: 0.815.

For “CCUAUACAAAGGGAAGUGCTT against A930029K19Rik”, the z-score is inactive: -0.0745.

With GCAUCUUAACACAUGUAAATT against Zfp369, the z-score was inactive: -0.0232.

For CCUCAUUCAAGAAACCUCATT against Comtd1, the z-score is inactive: 0.112.

Turning to “GCAAGAAUUAAGUCAGUGGTT against C730015A04Rik”, the z-score was inactive: -0.395.

In the case of UCAUGGUCAUCUUUACCCUTT against ORF61, the z-score was inactive: -0.182.

Regarding GCUCCAUACACGAAUGAGCTT against Edg2, the z-score is inactive: -0.708.

On to GGUGUACGAGAUCCAGGACTT against Eif3s6ip, for which the z-score was inactive: 1.5.

GCUUUACUUCUUCCUCAUUTT against Olfr924: the z-score was inactive: -0.698.

With GCAAUGAAUUAGCCUUAAATT against Pkia, the z-score was inactive: -2.26.

Regarding GGCAGAAUUCUUCACCUCCTT against P4ha2, the z-score is inactive: 1.2.

As to GGCGACCUUUGUGUUUCCUTT against Loh11cr2a, the z-score was inactive: 1.93.

In the case of GCUUCCAUCUUUACUAAGATT against Cpt2, the z-score is inactive: -0.989.

Consider GGAACAUUGAACUGAUUUGTT against Mapre1, for which the z-score was inactive: 0.831.

Regarding GCUGAACCUUUGAAAUUUCTT against Scmh1, the z-score is inactive: 1.29.

For GGACGAGAACGAUAAUUACTT against Dsc2, the z-score was inactive: 1.18.

Take “GGUCCUUGCCACUAAGCCUTT against D17Wsu155e”: the z-score was inactive: -0.339.

GCUGCUGACUUAUAACUGGTT against BC059842: the z-score is inactive: -1.44.

For CCACAGUUUGACCUAAUAGTT against Prg, the z-score is inactive: 1.32.
